Assay [1] has as its target recombinant P. berghei sporozoite phospholipid scramblase (PbPLS) (P. berghei). Kind of assay: ELISA; recombinant PbPLS attached overnight to a Ni-coated plate, blocked with 1% BSA in PBS, mouse hepatocyte lysate added; CPS1 detected with anti-CPS1 antibody and alkaline phosphatase-conjugated secondary antibody; normalised to anti-S-tag antibody binding; only the target purified. On the technique in general: An ELISA detects its analyte on a solid surface through an enzyme-linked reagent.

Assay [2] has the same target. The assay is described as follows: pull-down; recombinant pET-PLS on S-tag agarose beads incubated overnight with primary mouse hepatocyte lysate in 1% Triton X100; eluates blotted with anti-CPS1 or anti-VWA8 antibody; only the target purified.

No constants are given. Whether binding was seen depends on the method and setting. Binding can be weak; no strength is given. For some assays here: In cells and extracts the contact can be indirect.

B1: carbamoyl-phosphate synthetase 1 (CPS1), mouse hepatocyte (protein, UniProt Q8C196 39-1500)
chain: LSVKAKTAHIVLEDGTKMKGYSFGHPSSVAGEVVFNTGLGGYPEALTDPAYKGQILTMANPIIGNGGAPDTTARDELGLNKYMESDGIKVAGLLVLNYSNDYNHWLATKSLGQWLQEEKVPAIYGVDTRMLTKIIRDKGTMLGKIEFEGQSVDFVDPNKQNLIAEVSTKDVKVFGKGNPTKVVAVDCGIKNNVIRLLVKRGAEVHLVPWNHDFTQMEYDGLLIAGGPGNPALAQPLIQNVKKILESDRKEPLFGISTGNIITGLAAGAKSYKMSMANRGQNQPVLNITNRQAFITAQNHGYALDNTLPAGWKPLFVNVNDQTNEGIMHESKPFFAVQFHPEVSPGPTDTEYLFDSFFSLIKKGKGTTITSVLPKPALVASRVEVSKVLILGSGGLSIGQAGEFDYSGSQAVKAMKEENVKTVLMNPNIASVQTNEVGLKQADAVYFLPITPQFVTEVIKAERPDGLILGMGGQTALNCGVELFKRGVLKEYGVKVLGTSVESIMATEDRQLFSDKLNEINEKIAPSFAVESMEDALKAADTIGYPVMIRSAYALGGLGSGICPNKETLIDLGTKAFAMTNQILVERSVTGWKEIEYEVVRDADDNCVTVCNMENVDAMGVHTGDSVVVAPAQTLSNAEFQMLRRTSVNVVRHLGIVGECNIQFALHPTSMEYCIIEVNARLSRSSALASKATGYPLAFIAAKIALGIPLPEIKNVVSGKTSACFEPSLDYMVTKIPRWDLDRFHGTSSRIGSSMKSVGEVMAIGRTFEESFQKALRMCHPSVDGFTPRLPMNKEWPANLDLKKELSEPSSTRIYAIAKALENNMSLDEIVRLTSIDKWFLYKMRDILNMDKTLKGLNSDSVTEETLRKAKEIGFSDKQISKCLGLTEAQTRELRLKKNIHPWVKQIDTLAAEYPSVTNYLYVTYNGQEHDIKFDEHGIMVLGCGPYHIGSSVEFDWCAVSSIRTLRQLGKKTVVVNCNPETVSTDFDECDKLYFEELSLERILDIYHQEACNGCIISVGGQIPNNLAVPLYKNGVKIMGTSPLQIDRAEDRSIFSAVLDELKVAQAPWKAVNTLNEALEFANSVGYPCLLRPSYVLSGSAMNVVFSEDEMKRFLEEATRVSQEHPVVLTKFVEGAREVEMDAVGKEGRVISHAISEHVEDAGVHSGDATLMLPTQTISQGAIEKVKDATRKIAKAFAISGPFNVQFLVKGNDVLVIECNLRASRSFPFVSKTLGVDFIDVATKVMIGESIDEKRLPTLEQPIIPSDYVAIKAPMFSWPRLRDADPILRCEMASTGEVACFGEGIHTAFLKAMLSTGFKIPQKGILIGIQQSFRPRFLGVAEQLHNEGFKLFATEATSDWLNANNVPATPVAWPSQEGQNPSLSSIRKLIRDGSIDLVINLPNNNTKFVHDNYVIRRTAVDSGIALLTNFQVTKLFAEAVQKSRTVDSKSLFHYRQYSAGKAA
For the molecule B1, the binding result in assay [1] and in assay [2] was “binds” throughout.

Source of the values: publication PMC8604956.
